Assay [1] addresses 2xFLAG-tagged full length Brm ΔHSA (Drosophila) (UniProt P25439). Put plainly: co-IP; nuclear extract of transfected S2 cells, treated with benzonase 100 U per ml for 1 h in IP buffer (20 mM HEPES pH 7.4, 80 mM KCl, 0.2% NP-40); IP with anti-MYC, anti-FLAG or anti-Pol-II at 4 °C for 2 h; western blot; for ARP4/Act (Fig. 2a) cells with or without Tctp knock-down by dsRNA. (In general: In western blotting, separated proteins are transferred to a membrane and probed.)

By UniProt entry, the sequences of proteins in these tests, tags left out. Where a name states a change or a piece, a line headed by the entry shows the natural chain unless it says otherwise.
UniProt P25439: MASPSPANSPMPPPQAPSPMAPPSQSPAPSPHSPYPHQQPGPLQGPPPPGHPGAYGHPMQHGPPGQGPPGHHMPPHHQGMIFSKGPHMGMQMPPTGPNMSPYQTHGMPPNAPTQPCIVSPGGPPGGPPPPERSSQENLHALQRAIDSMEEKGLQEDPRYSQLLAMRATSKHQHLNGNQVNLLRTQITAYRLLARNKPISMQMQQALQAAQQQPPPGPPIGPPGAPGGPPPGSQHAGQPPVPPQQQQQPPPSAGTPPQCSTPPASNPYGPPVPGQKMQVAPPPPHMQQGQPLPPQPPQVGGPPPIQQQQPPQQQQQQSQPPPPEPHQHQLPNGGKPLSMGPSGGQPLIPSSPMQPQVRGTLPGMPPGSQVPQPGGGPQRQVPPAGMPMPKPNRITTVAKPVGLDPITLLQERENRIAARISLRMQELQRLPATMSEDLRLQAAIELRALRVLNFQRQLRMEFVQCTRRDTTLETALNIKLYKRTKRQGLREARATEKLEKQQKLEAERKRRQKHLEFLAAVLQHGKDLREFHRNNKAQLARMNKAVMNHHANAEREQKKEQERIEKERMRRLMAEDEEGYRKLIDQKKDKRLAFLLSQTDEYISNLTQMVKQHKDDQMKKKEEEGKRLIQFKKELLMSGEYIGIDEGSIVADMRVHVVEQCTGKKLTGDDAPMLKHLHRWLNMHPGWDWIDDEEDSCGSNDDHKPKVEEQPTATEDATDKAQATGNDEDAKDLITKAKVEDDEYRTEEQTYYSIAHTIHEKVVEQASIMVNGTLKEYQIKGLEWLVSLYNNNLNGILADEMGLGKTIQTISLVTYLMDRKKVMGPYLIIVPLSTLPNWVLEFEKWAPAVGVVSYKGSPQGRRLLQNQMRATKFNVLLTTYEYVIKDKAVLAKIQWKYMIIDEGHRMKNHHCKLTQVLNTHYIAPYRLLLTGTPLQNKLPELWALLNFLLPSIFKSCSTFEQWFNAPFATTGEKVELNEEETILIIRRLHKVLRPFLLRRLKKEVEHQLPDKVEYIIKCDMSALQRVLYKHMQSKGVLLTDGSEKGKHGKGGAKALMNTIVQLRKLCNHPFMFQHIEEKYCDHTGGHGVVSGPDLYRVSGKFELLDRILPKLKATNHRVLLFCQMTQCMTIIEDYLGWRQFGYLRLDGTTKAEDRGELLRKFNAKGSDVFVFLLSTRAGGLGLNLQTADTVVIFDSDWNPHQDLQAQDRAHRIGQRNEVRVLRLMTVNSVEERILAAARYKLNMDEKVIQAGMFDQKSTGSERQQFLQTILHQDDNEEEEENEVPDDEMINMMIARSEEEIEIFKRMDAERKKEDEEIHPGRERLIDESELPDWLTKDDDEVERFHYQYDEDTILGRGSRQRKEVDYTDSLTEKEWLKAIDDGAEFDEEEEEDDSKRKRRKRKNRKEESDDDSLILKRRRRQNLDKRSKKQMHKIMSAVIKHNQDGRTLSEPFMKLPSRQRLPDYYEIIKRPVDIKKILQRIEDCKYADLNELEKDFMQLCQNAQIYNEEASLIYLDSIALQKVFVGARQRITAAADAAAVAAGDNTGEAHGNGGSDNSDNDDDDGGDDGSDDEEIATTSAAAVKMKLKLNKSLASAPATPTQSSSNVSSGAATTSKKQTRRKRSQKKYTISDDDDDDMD

Assay [2] concerns the target 2xFLAG-tagged full length Brm ΔBRK (Drosophila) (UniProt P25439). Described as above.
Assay [3] has as its target 2xFLAG-tagged full length Brm ΔHSAΔBRK (Drosophila) (UniProt P25439). The assay is described as above.
For assay [4], the target named is GST-Brm 304-747 ΔHSA, ΔBRK (Drosophila) (UniProt P25439). Put plainly: pull-down; GST-Brm fragments as baits, MBP-Tctp as prey, 5 micrograms each; PDB (20 mM Tris-HCl pH 7.5, 150 mM NaCl, 0.5 mM EDTA, 10% glycerol, 0.1% Triton X-100, 1 mM DTT) with 0.2% BSA, 2-3 h at 4 °C; western blot with anti-GST and anti-MBP; proteins extracted from E. coli and dialysed; both purified.

No constants are given. Whether binding was seen depends on the method and setting. Binding seen in cells or lysates may run through a third protein. For some of these results: A result given as binding can be weak or reduced; the word gives no strength. Sequences can lack the tags named with a protein.

B1: 2xMYC-Tctp (protein, UniProt Q9VGS2 1-172)
chain: MKIYKDIITGDEMFADTYKMKLVDDVIYEVYGKLITRQGDDIKLEGANASAEEADEGTDITSESGVDVVLNHRLTECFAFGDKKSYTLYLKDYMKKVLAKLEEKSPDQVDIFKTNMNKAMKDILGRFKELQFFTGESMDCDGMVALVEYREINGDSVPVLMFFKHGLEEEKC
With B1, the binding entry in assay [1] was “binds”; in assay [2] it was “binds”; in assay [3], “binds weakly”.

B2: MBP-Tctp (natural protein, Drosophila, UniProt Q9VGS2 1-172, looked up)
chain: B1 chain
notes: Drosophila Tctp in pMAL-c2; also called MBP-tagged Tctp; source: E. coli Rosetta2, extracted and dialysed
As to B2, the binding result in assay [4] was “no binding”.

(Values after publication PMC5056459, “Antagonistic roles of Drosophila Tctp and Brahma in chromatin remodelling and stabilizing repeated sequences” (Nature Communications, 2016).)
